Experimental data: paper PMC4838909
Results are given in words; binding and its absence hold for the method and conditions named. In cells and extracts the contact can be indirect. Some binding calls cover weakened binding; strength is not graded here. Tags and fused reporters may be left off the sequences shown.

The chains behind the UniProt entries cited, without tags or fusion partners.
UniProt Q676U5: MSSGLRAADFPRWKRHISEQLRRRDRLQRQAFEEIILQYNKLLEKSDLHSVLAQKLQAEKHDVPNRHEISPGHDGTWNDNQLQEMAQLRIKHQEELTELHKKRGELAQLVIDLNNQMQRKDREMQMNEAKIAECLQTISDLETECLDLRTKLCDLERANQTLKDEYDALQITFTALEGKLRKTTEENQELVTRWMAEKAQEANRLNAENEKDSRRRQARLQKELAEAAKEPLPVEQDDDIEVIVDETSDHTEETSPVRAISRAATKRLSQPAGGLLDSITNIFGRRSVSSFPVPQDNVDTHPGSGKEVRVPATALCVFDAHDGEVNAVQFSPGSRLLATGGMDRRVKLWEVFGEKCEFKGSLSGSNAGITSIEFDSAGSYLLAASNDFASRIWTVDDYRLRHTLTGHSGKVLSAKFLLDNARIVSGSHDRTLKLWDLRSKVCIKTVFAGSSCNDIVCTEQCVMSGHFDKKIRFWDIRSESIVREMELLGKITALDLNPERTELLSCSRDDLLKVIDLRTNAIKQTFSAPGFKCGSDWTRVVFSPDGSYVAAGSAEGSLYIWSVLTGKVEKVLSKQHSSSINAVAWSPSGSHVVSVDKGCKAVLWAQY

Biological target: T1, Flag-Ppp1r36 (mouse) (UniProt D3Z0R2)
T1 sequence: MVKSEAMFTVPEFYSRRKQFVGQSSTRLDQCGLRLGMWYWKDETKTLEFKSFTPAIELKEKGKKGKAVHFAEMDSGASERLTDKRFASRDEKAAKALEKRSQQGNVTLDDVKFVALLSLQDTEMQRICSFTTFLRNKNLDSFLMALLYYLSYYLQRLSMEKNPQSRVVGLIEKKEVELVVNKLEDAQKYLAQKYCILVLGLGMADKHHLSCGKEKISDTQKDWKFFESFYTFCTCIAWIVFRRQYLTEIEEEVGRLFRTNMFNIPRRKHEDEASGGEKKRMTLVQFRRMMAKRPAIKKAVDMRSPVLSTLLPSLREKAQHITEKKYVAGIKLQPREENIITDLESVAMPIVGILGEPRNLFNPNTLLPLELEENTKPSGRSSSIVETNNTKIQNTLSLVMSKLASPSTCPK
Assay: co-IP; HEK293T cells transfected and cultured in HBSS medium for 2 hrs before harvest; RIPA lysates (50 mM Tris pH7.4, 150 mM NaCl, 0.5% NP40, 1 mM EDTA); anti-Flag antibody and Protein G Agarose overnight at 4 °C, washed four times; immunoblot with anti-Atg16L1 or anti-Myc

## endogenous Atg16L1 (from UniProt Q676U5 1-607)
  binding: binds
